This note sets out measurements from article PMC8782160.

Chains of the proteins cited; added tags and fusions are not shown. A change or cut given only in a name is not applied to a line headed by its entry. A line that says so, or that is headed by a name, gives the form on record, which may keep a tag or linker.
UniProt P01106: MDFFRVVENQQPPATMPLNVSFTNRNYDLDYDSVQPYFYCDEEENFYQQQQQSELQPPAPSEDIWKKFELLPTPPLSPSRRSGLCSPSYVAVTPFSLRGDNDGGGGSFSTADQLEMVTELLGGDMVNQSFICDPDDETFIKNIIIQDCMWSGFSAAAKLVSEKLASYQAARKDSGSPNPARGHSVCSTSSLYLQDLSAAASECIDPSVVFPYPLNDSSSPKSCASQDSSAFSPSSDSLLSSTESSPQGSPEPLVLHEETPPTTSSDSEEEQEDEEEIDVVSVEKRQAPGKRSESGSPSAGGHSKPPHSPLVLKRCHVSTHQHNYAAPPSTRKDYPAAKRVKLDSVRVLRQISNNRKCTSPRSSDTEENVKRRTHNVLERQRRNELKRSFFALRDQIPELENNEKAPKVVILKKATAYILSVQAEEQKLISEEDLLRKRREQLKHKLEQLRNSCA
c-MYC (purified recombinant, Abcam ab169901) (human), one chain, as listed by the source: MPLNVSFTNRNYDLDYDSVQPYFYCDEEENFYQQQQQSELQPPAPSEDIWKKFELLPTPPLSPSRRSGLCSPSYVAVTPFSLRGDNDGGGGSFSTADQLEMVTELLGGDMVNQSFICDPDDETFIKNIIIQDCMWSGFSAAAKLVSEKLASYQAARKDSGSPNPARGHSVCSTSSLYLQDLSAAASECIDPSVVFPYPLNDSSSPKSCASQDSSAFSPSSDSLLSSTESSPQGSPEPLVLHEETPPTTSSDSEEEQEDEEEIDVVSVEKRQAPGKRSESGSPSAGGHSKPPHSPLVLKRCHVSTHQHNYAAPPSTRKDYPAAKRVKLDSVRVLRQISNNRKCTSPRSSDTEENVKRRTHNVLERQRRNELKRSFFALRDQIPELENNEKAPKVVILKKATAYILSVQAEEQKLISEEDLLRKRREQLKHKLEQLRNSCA

Data set [1] concerns c-MYC (purified recombinant, Abcam ab169901) (human). The data set can be described thus: competition with a labelled probe. Particulars: 100x unlabelled probe; Probes annealed at room temperature 1 h, incubated 20 min with protein/NE; WEMSA gel at 100 V on ice; salt and pH not given; commercial protein.
Data set [2] has the same test system. Briefly: WEMSA (EMSA + anti-c-MYC immunoblot). As to conditions: p = 0.01, Probes annealed at room temperature 1 h, incubated 20 min with protein/NE, WEMSA gel at 100 V on ice, salt and pH not given, commercial …, label: biotin. For orientation: In EMSA bound probe runs differently from free probe, usually more slowly.
Data set [3] deals with c-MYC in U937 nuclear extract (UniProt P01106). Briefly: WEMSA (EMSA + anti-c-MYC immunoblot). As to conditions: p = 0.05, PMA-stimulated U937 NE, Probes annealed at room temperature 1 h, incubated 20 min with protein/NE, WEMSA gel at 100 V on ice, salt and pH not given, protein in an extract, label: biotin.
Data set [4] deals with c-MYC (purified recombinant, Abcam ab169901) (human). The data set can be described thus: EMSA. As to conditions: Probes annealed at room temperature 1 h, incubated 20 min with protein/NE; WEMSA gel at 100 V on ice; salt and pH not given; commercial protein; label: biotin.

The exact form of at least one protein or probe is not confirmed. For some assays here: Weaker means in comparison with the reference protein, sequence or condition of that experiment. For some assays here: At least one result comes from cells or an extract, where the contact may be indirect. For some assays here: At least one verdict was read from the data and is not stated in words by the source.

For the sequence “CTCCATGACGCAATTTGGGCTCTGTTATGAGTCAGCTCAAGTAA (double strand) [rs6600247 T unlabelled competitor]”, the binding result in data set [1] was “binds”.
“CTCCATGACGCAATTTGGGCTCTGTTATGAGTCAGCTCAAGTAA (double strand) [rs6600247 T (protective) probe]”: the binding result in data set [2] (T > C), in data set [3] (T > C) and in data set [4] was “binds” throughout.
For the sequence “CTCCATGACGCAATTTGGGCTCCGTTATGAGTCAGCTCAAGTAA (double strand) [rs6600247 C (AS-risk) probe]”, the binding result in data set [2] (C < T), in data set [3] (C < T) and in data set [4] was “binds more weakly” throughout.
“CTCCATGACGCAATTTGGGCTCCGTTATGAGTCAGCTCAAGTAA (double strand) [rs6600247 C unlabelled competitor]”: the binding result in data set [1] is on record as “binds”.
